Test results: patent US7294509B2, “Pre-adipose cell lines” (Nestec S.A., priority 2000, dated 2007)
For at least one compound, name, drawing or mass did not settle the structure.

Legend:
Chub-S7 cells [1] = assay: Glycerol-3-phosphate dehydrogenase (GPDH) specific activity in Chub-S7 cells during differentiation; assay type: cell-based, human
Chub-S7 cells [2] = assay: Adipocyte marker gene expression by real-time RT-PCR during Chub-S7 cell differentiation; assay type: cell-based, human; details: for C/EBPα mRNA expression: time course day 0 to 17, BRL49653 1 μM: from day 6, plateau at day 13, Dex 1 μM
Procedure: Adipocyte differentiation of Chub-S7 cells was tested under serum-free culture conditions. To promote pre-adipocyte differentiation, confluent cells were incubated with a basal medium (see Material and Methods) supplemented with 500 μM IBMX and 1 μM Dex for the first 3 days, and 1 μM of a PPARγ agonist (BRL49653) and 1 μM Dex from day 3 to 17. This condition was compared to the basal medium alone or supplemented with Dex plus IBMX from day 0 to 3 and Dex alone from day 3 to 17. To determine whether Chub-S7 cells were able to differentiate, the expression of adipocyte markers was assessed, by real-time RT-PCR, at different time points during cellular maturation. These markers included i) transcriptional factors involved in adipogenesis such as peroxisome proliferator-activated receptor γ (PPARγ) and CAAT/enhancer binding protein α (C/EBPα), ii) genes involved in lipid metabolism such as lipoprotein lipase (LPL) and adipocyte fatty acid binding protein (aP2), and finally iii) adipocyte secreted factors such as adipsin and leptin.
Chub-S7 cells were cultured from day 0 to 17 in the presence of the basal medium as defined in Material and Methods (m), or in the basal medium with 1 μM Dex plus 500 μM IBMX from day 0 to 3 and dexamethasone from day 3 to 17 (●) or supplemented with 1 μM BRL49653 (▪). The arrow indicates the day from which BRL49653 was added to the medium. Relative gene expression was quantified by real-time RT-PCR. Data are the means±SEM of values obtained at least in four separate experiments. […] Top panels show representative RT-PCRs performed at a number of cycle defined according to the linear amplification of the genes (see Material and Methods). […]
RNAs from Chub-S7 cells cultured from day 0 to 17 were extracted using the NucleoSpin® Total RNA Purification System (Macherey-Nagel, Oensingen Switzerland). […] SYBR Green I fluorescence was detected at the end of each cycle to monitor the amount of PCR product formed during that cycle. […]
Cycle to cycle fluorescence emission was monitored and quantified using the GenAmp software provided by Applied Biosystem. […]

**Q.** How did the GPDH specific activity (Chub-S7 cells [1]; day 10, 1 μM BRL49653) turn out when CN(CCOc1ccc(CC2SC(=O)NC2=O)cc1)c1ccccn1 (stereo not drawn) [BRL49653] was run?
**A.** The GPDH specific activity was “slightly increased”.

**Q.** And the GPDH specific activity (Chub-S7 cells [1]; day 17, 1 μM BRL49653)?
**A.** Its GPDH specific activity is “reached a maximum level”.

**Q.** And the PPARγ expression (Chub-S7 cells [2]; day 10 and 17, 1 μM BRL49653 plus Dex from day 3, after IBMX removal)?
**A.** Its PPARγ expression is “able to reinitiate PPARγ expression”.

**Q.** What about the “C/EBPα mRNA expression” value (Chub-S7 cells [2]) of the same molecule?
**A.** The value was “slightly increased”.

**Q.** How did the GPDH specific activity (Chub-S7 cells [1]; along the time course day 0 to 17, 1 μM Dex alone) turn out when C[C@@H]1C[C@H]2[C@@H]3CCC4=CC(=O)C=C[C@]4(C)[C@@]3(F)[C@@H](O)C[C@]2(C)[C@@]1(O)C(=O)CO [Dex, Dexamethasone] was run?
**A.** The GPDH specific activity was “not increased”.

**Q.** What about the “C/EBPα mRNA expression” value (Chub-S7 cells [2]) of the same molecule?
**A.** Its value is “did not affect”.
